Assay results: patent US9346854B2, “Anti-inflammatory peptides and use thereof” (Yeda Research and Development Co. Ltd., priority 2012, dated 2016)
“Also recorded” adds a separate entry of the source. At least one peptide structure holds a part that was inferred or is arguable (an end, a ring closure or a residue). No end group written: not given here.

What was measured:
RBL-2H3 cells [1] = assay: IgE and DNP-BSA mediated degranulation (β-hexoseaminidase release); type: cell-based, rat; conditions: for Inhibition of Degranulation (%): peptide concentration 20 μM, derived from FIG. 9A
Method: In order to study the specific effect of the peptides of the invention on direct IgE mediated degranulation, the rat basophilic cell line (RBL-2H3) was used. This cell line expresses high levels of surface IgE receptor that binds IgE with high affinity (FcεRI). Upon adding an allergen (IgE antigen) there is a cross-linking of adjacent FcεRs that results in degranulation and release of histamine. Degranulation was measured as release of intracellular β-hexoseaminidase (Nunomura et al., Int Immunol 17, 685-94, 2005).
In this assay system, RBL cells were incubated with the DNP-specific murine monoclonal IgE SPE7 (Eshhar et al., J Immunol 124:775, 1980) for 2.5 hours. The cells were washed and centrifuged and then further incubated with the DNP-BSA antigen that crossed-link the FcεRI bound IgE. Next, extracellular hexoseaminidase levels were evaluated by their ability to hydrolyze the 4-nitrophenyl-N-acetyl-β-D-glucosaminide substrate which results in the accumulation of a colored product. The tested peptides (see Table 5) were added at different concentrations and stages of the assay and tested for their ability to inhibit this reaction.
In the first set of experiments, RBLs were incubated with different concentrations of the (AL)6AK2 peptide or irrelevant control peptide (alpha subunit peptide) in the presence of IgE. Following incubation, the cells were washed and DNP10-BSA with peptide was added to crosslink adjacent FcεRI (FIG. 6). Following incubation, the cells were washed and suspended in the degranulation medium for either 30 (FIG. 6A) or 60 min. (FIG. 6B).

RBL-2H3 cells [2] = assay: Anti-FcεRI antibody mediated degranulation; type: cell-based, rat; conditions: anti-FcεRI mAb diluted to cause 70% degranulation (FIG. 7A)
Balb/c mice = assay: Antigen (OVA) induced anaphylactic shock; type: in vivo
Method: The inhibitory capacity of the Kn(AL)nKn peptides was tested in the most rigorous manner for inhibition of otherwise fatal anaphylaxis. In this model, Balb/c mice were immunized by an i.p. injection of 100 μg OVA in 5 mg Alum and 1.5 μg pertusis, a protocol that favors IgE-type of response. Three weeks later the immunized mice received an i.v. injection of soluble OVA (3.5-5 μg), resulting in a rapid and aggressive anaphylactic shock. In this specific model, the immunized mice die within 10-20 minutes after the systemic (i.v.) OVA injection.
To test the ability of the peptides of the invention to inhibit anaphylactic shock formation, an i.v. injection of the K2(AL)8K2 peptide at 10-15 mg/kg was administered, 30-45 minutes prior to the soluble OVA challenge. Strikingly, this single injection rescued 87% of the sensitized mice (Table 7). […] In several mice that were protected by the K2(AL)8K2 peptide, the protection lasted for at least 2 days. Peptide treated mice died of anaphylactic shock only after systemic injection of a very high dose of OVA. Still, the exact conditions for optimum protective activity need to be validated.

Lewis rat = assay: Passive cutaneous anaphylaxis (PCA); type: in vivo; conditions: intra-dermal with DNP-specific IgE, within 15-30 minutes, dose-dependent

Substance	inhibition of IgE/DNP-BSA degranulation, in words (RBL-2H3 cells [1])	Inhibition of Degranulation (%) (RBL-2H3 cells [1])	maximal inhibition of degranulation (RBL-2H3 cells [2]) [%]	protection from anaphylactic shock, in words (Balb/c mice; mouse, in vivo)	maximum inhibition of degranulation (RBL-2H3 cells [1]; FIG. 9) [%]	inhibition of PCA (Lewis rat)	duration of protection (Balb/c mice; in several protected mice)
ALALALALALALAKK-NH2 [(AL)6AK2, ALALALALALALAKK]	concentration dependent inhibition; also recorded: inhibited degranulation, regardless of the assay steps	50	50	dramatic protection	–	–	–
KKALALALALALALALALKK-NH2 [K2(AL)8K2]	–	70	–	–	70	almost completely inhibited	at least 2 days
